Assay results taken from paper PMC9839713, “Arabidopsis DXO1 activates RNMT1 to methylate the mRNA guanosine cap” (Nature Communications, 2023).
These are yes or no findings as the source states them, for the method shown. Where a sequence is shown, tags or fusion partners need not be part of it.

Biological target: BD-cDXO1 (C-terminal part of DXO1 without the N-terminal extension) (Arabidopsis thaliana)
Test: two-hybrid; pairwise: one protein as BD fusion (pGBKT7), the other as AD fusion (pGADT7) in yeast Y2H Gold; growth on -Leu -Trp -His -Ade with AbA (and X-alpha-Gal in some), 3 days at 30 °C

B1: GST-RNMT1 (natural protein, Arabidopsis thaliana, UniProt Q9LHQ7 1-370, looked up)
chain: MKRGFSDSPSSSAPPPSSRFKSNPEGDSQFLEDETTKNFARKVADHYSRRTNQTLEEREASPIIHLKKLNNWIKSVLIQLYARPDDAVLDLACGKGGDLIKWDKARIGYYVGIDIAEGSIEDCRTRYNGDADHHQRRKKFSFPSRLLCGDCFEVELDKILEEDAPFDICSCQFAMHYSWTTEARARRALANVSALLRPGGVFIGTMPDANVIIKKLREAEGLEIGNSVYWIRFGEEYSQKKFKSSSPFGIEYVFHLEDAVDCPEWIVPFNVFKSLAEEYDLELVFVKNSHEFVHEYMKKPEFVELMRRLGALGDGSNDQSTLSADEWEAAYLYLSFVLRKRGESDGARRSGRRKNGKMNLSKDDVLYIDS
notes: The methods name a 'GST-DXO1' fusion in pGEX-4T-1 and RNMT1 in pET28a, while results, legend and pull-down methods use GST-RNMT1; In the functional rows the RNMT1 was the recombinant protein from pET28a (6X His); also called GST-tagged RNMT1; source: E. coli BL21 Rosetta, purified (GST agarose beads); not shown: GST, N-terminal, kept
- binding: no binding
